# Measured values reported in the supplement of paper PMC9135407.
# Where “and” joins values, the source holds several entries; their conditions need not be identical. Identical values can stand only once. Counter-ions that a name gives are not always drawn. ± gives the standard deviation of the averaged measurements. The list shows a part of the results. Baselines shift from plate to plate; read single values as rough.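 Culture-activated primary human stellate myofibroblasts, where regained lipid droplets signal inactivation. Value: share of Hoechst-counted cells above a per-plate Bodipy cutoff, in duplicate wells, with DMSO negative and nortriptyline positive controls on each plate. Hits: a control-normalized score above the plate's top-tenth-percentile nortriptyline wells, or one of a plate's three best wells. Final well concentrations are not given.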
# System: primary human hepatic stellate cells (donor 1)
# Experiment: percent Bodipy-positive cells; higher = more lipid droplet accumulation
# Details: 48 h
# [1] = library stock concentration: 10 mM
# [2] = library stock concentration: 9.1 mM
# [3] = library stock concentration: 3.33 mM
# [4] = library stock concentration: 1 mM
# [5] = library stock concentration: 6.8 mM
structure (smiles),measurement,setting,value
CN1C(=O)COc2c(C(=O)NC3CN4CCC3CC4)cc(Cl)cc21 (stereo not drawn) [Azasetron],percent Bodipy-positive cells,[1],9.91 ± 5.1%
Cc1cccc(C)c1NC1=NCCCS1 [Xylazine],percent Bodipy-positive cells,,33.1 ± 2%
same,percent Bodipy-positive cells,[2],31.4 ± 2.8%
same,percent Bodipy-positive cells,[1],40.6 ± 14%
Cc1cccc(C)c1NC1=NCCCS1 [Xylazine hydrochloride],percent Bodipy-positive cells,[1],34.8 ± 0.4%
Cc1cccc(C)c1NC1=NCCCS1 [Xylazine HCl],percent Bodipy-positive cells,[3],12.4 ± 0.92%
same,percent Bodipy-positive cells,[2],9.06 ± 1.1%
same,percent Bodipy-positive cells,[1],26.5 ± 7.1%
Clc1ccc(N2CC3CCC(C2)N3)nn1,percent Bodipy-positive cells,[1],41.2 ± 8.7%
COc1cc2c(cc1OC)C1CC(=O)C(CC(C)C)CN1CC2 (stereo not drawn) [Tetrabenazine],percent Bodipy-positive cells,[1],18.4% and 8.12%
CCNC(=O)[C@H]1O[C@@H](n2cnc3c(N)ncnc32)[C@H](O)[C@@H]1O [5'-N-Ethylcarboxamidoadenosine],percent Bodipy-positive cells,[1],29.6 ± 2.5%
CCNC(=O)[C@H]1O[C@@H](n2cnc3c(N)ncnc32)[C@H](O)[C@@H]1O,percent Bodipy-positive cells,[1],7.66 ± 2.3%
CCCCC/C=C\C/C=C\C/C=C\C/C=C\CCCC(=O)Nc1ccc(O)cc1,percent Bodipy-positive cells,[4],20.5 ± 22%
same,percent Bodipy-positive cells,[1],11.6% and 32.5%
O=C1CCC[C@@H]2[C@H]3CCCN4CCC[C@@H](CN12)[C@@H]34 [(+)-Matrine],percent Bodipy-positive cells,[3],10.1 ± 3.7%
same,percent Bodipy-positive cells,[1],15.5 ± 6%
COc1ccc2cc(C(C#N)OC(=O)OCC3OC3c3ccccc3)ccc2c1 (stereo not drawn) [Epoxy Fluor 7],percent Bodipy-positive cells,[4],9.99 ± 0.24%
COC[C@H]1OC(=O)c2coc3c2[C@@]1(C)C1=C(C3=O)[C@@H]2CCC(=O)[C@@]2(C)C[C@H]1OC(C)=O [Wortmannin],percent Bodipy-positive cells,[3],10.9 ± 3.4%
same,percent Bodipy-positive cells,[1],23.7 ± 4.5%
C=C(C)[C@@H]1CCC(C)=C[C@H]1c1c(O)cc(O)cc1CCCCC,percent Bodipy-positive cells,[4],21.7 ± 11%
O=C1C=CC(=O)c2c(O)cccc21 [Juglone],percent Bodipy-positive cells,[1],72.3 ± 24%
CNCCc1ccc(O)c(O)c1 [N-Methyldopamine hydrochloride],percent Bodipy-positive cells,[1],22.4 ± 0.32%
Clc1cnc(Oc2ccc(Oc3ncc(Cl)cc3Cl)cc2)c(Cl)c1,percent Bodipy-positive cells,[1],33.9 ± 5.9%
Oc1cc2c(cc1O)[C@H]1c3ccccc3CN[C@@H]1CC2,percent Bodipy-positive cells,[1],57.63 ± 0.23%
COc1ccc2c(c1)[C@]13CCCC[C@@H]1[C@H](C2)N(C)CC3 [Dextromethorphan hydrobromide],percent Bodipy-positive cells,library stock concentration: 5.7 mM,29.9 ± 4.6%
same,percent Bodipy-positive cells,[1],36.12 ± 0.2%
COc1ccc2c(c1)[C@]13CCCC[C@@H]1[C@H](C2)N(C)CC3 [d-3-Methoxy-N-methylmorphinan hydrobromide],percent Bodipy-positive cells,[1],49 ± 4.2%
COc1ccc2c(c1)[C@]13CCCC[C@@H]1[C@H](C2)N(C)CC3 [Dextromethorphan hydrobromide monohydrate],percent Bodipy-positive cells,,50.7 ± 0.93%
same,percent Bodipy-positive cells,[1],77.5 ± 3.2%
COc1c(C[C@@H](C)OC(=O)Oc2ccc(O)cc2)c2c3c(C[C@@H](C)OC(=O)c4ccccc4)c(OC)c(=O)c4c(O)cc(OC)c(c5c(OC)cc(O)c(c1=O)c52)c43 [Calphostin C],percent Bodipy-positive cells,library stock concentration: 600 uM,3.36 ± 0.17%
CC1=NCCc2c1[nH]c1cc(O)ccc21 [Harmalol hydrochloride],percent Bodipy-positive cells,[1],31.6 ± 12%
Cc1cccc(C(C)c2c[nH]cn2)c1C (stereo not drawn) [Medetomidine hydrochloride],percent Bodipy-positive cells,[1],8.77 ± 2.7%
Cc1cccc(C(C)c2c[nH]cn2)c1C (stereo not drawn) [Medetomidine HCl],percent Bodipy-positive cells,[3],10.7 ± 5.6%
same,percent Bodipy-positive cells,[1],64.3 ± 26%
C=C[C@H]1CN2CC[C@H]1C[C@H]2[C@H](O)c1ccnc2ccccc12 [(-)-Cinchonidine],percent Bodipy-positive cells,,29.9 ± 11%
C=C[C@H]1CN2CC[C@H]1C[C@H]2[C@H](O)c1ccnc2ccccc12 [Cinchonidine],percent Bodipy-positive cells,[3],13.08 ± 0.11%
same,percent Bodipy-positive cells,[5],14 ± 6.9%
same,percent Bodipy-positive cells,[1],23.8% and 17.4%
"CNCC(O)c1ccc(O)cc1 (racemic) [(+,-)-Synephrine]",percent Bodipy-positive cells,,9.32 ± 1.2%
"CN(N=O)c1ccc(O)c(O)c1 [Me-3,4-dephostatin]",percent Bodipy-positive cells,[1],47.6 ± 6.9%
CC(N)Cc1c[nH]c2ccc(OCc3cccs3)cc12.Cl (stereo not drawn) [BW 723C86 hydrochloride],percent Bodipy-positive cells,[1],70 ± 3%
Cc1ccccc1-n1c(Cn2cnc3c(N)ncnc32)nc2cccc(C)c2c1=O,percent Bodipy-positive cells,library stock concentration: 400 uM,17.9 ± 3%
same,percent Bodipy-positive cells,library stock concentration: 2 mM,16.7 ± 12%
same,percent Bodipy-positive cells,[1],63.1 ± 22%
C[C@]12CC[C@@H](O)C[C@@H]1CC[C@@H]1[C@@H]2CC[C@]2(C)C(=O)CC[C@@H]12 [Androsterone],percent Bodipy-positive cells,,20.3 ± 1.9%
CCCN1CCC[C@@H]2Cc3nc(N)ncc3C[C@H]21 [Quinelorane dihydrochloride],percent Bodipy-positive cells,[1],13.8 ± 4.5%
CC1=CC(=O)C2=C(C)C[C@H](O)[C@@H]3[C@H](OC(=O)[C@H]3C)[C@H]12 [Austricine hydrate],percent Bodipy-positive cells,,12 ± 3.8%
OC[C@@H]1CCCN2CCCC[C@H]12 [Lupinine],percent Bodipy-positive cells,[1],32.5 ± 1.5%
COc1cc2c3cc1Oc1cc(ccc1O)C[C@@H]1c4c(cc(OC)c(O)c4Oc4cccc(c4)C[C@@H]3N(C)CC2)CC[N+]1(C)C [Tubocurarine chloride pentahydrate (+)],percent Bodipy-positive cells,,24.11 ± 0.15%
C=CC[C@]1(O)CC[C@H]2[C@@H]3CCC4=CC(=O)CCC4=C3C=C[C@@]21C [Altrenogest],percent Bodipy-positive cells,[3],12.1 ± 4.8%
same,percent Bodipy-positive cells,library stock concentration: 6.4 mM,2.13 ± 3%
same,percent Bodipy-positive cells,[1],46.3 ± 8.1%
CN1C(=O)[C@]23CC4=CC=C[C@H](O)[C@H]4N2C(=O)[C@@]1(CO)SS3 [Gliotoxin],percent Bodipy-positive cells,library stock concentration: 15.3 mM,100%
C=C1[C@@H]2CC[C@H]3[C@]4(C)C[C@H](O[C@@H]5O[C@H](CO)[C@@H](OS(=O)(=O)O)[C@H](OS(=O)(=O)O)[C@H]5OC(=O)CC(C)C)C[C@@H](C(=O)O)[C@H]4CC[C@]3(C2)[C@@H]1O [Atractyloside potassium salt],percent Bodipy-positive cells,,9.38 ± 4.6%
C=CCN=C=S,percent Bodipy-positive cells,[1],45.8 ± 11%
C=C[C@H]1CN2CC[C@H]1C[C@@H]2[C@@H](O)c1ccnc2ccccc12 [Cinchonine],percent Bodipy-positive cells,,42.9 ± 31%
same,percent Bodipy-positive cells,[5],27.2 ± 7%
same,percent Bodipy-positive cells,[1],16.4 ± 2.2%
"C/C(=C\c1csc(C)n1)[C@@H]1C[C@@H]2O[C@]2(C)CCC[C@H](C)[C@H](O)[C@@H](C)C(=O)C(C)(C)[C@@H](O)CC(=O)O1 [Epothilone B (EPO906, Patupilone)]",percent Bodipy-positive cells,[3],7.13 ± 1%
same,percent Bodipy-positive cells,[1],13.2 ± 3.7%
CC(Cc1ccc(O)cc1)NCC(O)c1cc(O)cc(O)c1 (stereo not drawn) [Fenoterol hydrobromide],percent Bodipy-positive cells,,27.7 ± 3.4%
same,percent Bodipy-positive cells,library stock concentration: 5.2 mM,9.97 ± 0.34%
Cn1cnc(CCN)c1 [N ?-Methylhistamine dihydrochloride],percent Bodipy-positive cells,[1],7.11 ± 0.47%
Cn1cnc(CCN)c1 [1-Methylhistamine dihydrochloride],percent Bodipy-positive cells,[1],29.1 ± 15%
COc1cc2c(cc1O)[C@@H]1Cc3ccc(OC)c(O)c3CN1CC2 [Scoulerine],percent Bodipy-positive cells,,52 ± 25%
C1CCc2nnnn2CC1 [Pentylenetetrazole],percent Bodipy-positive cells,,31.3 ± 2.1%
same,percent Bodipy-positive cells,[1],25.7% and 3.93%
CC(C)CC(N(C)C)C1(c2ccc(Cl)cc2)CCC1 (stereo not drawn) [Sibutramine],percent Bodipy-positive cells,[1],50 ± 18%
CC(C)CC(N(C)C)C1(c2ccc(Cl)cc2)CCC1 (stereo not drawn),percent Bodipy-positive cells,[1],27.4 ± 13%
CC(C)CC(N(C)C)C1(c2ccc(Cl)cc2)CCC1 (stereo not drawn) [Sibutramine HCl],percent Bodipy-positive cells,library stock concentration: 7.1 mM,29.4 ± 0.56%
CC(C)CC(N(C)C)C1(c2ccc(Cl)cc2)CCC1 (stereo not drawn) [Sibutramine hydrochloride],percent Bodipy-positive cells,library stock concentration: 6.3 mM,19.9 ± 7.4%
same,percent Bodipy-positive cells,[1],55.3 ± 7.5%
C=CCN1CC[C@]23c4c5ccc(O)c4O[C@H]2/C(=N/NC(=O)c2ccccc2)CC[C@@]3(O)[C@H]1C5 [Naloxone benzoylhydrazone],percent Bodipy-positive cells,[1],8.69 ± 0.36%
COc1ccc(/C=C/C(=O)CC(=O)/C=C/c2ccc(OC)c(OC)c2)cc1OC [Dimethoxycurcumin],percent Bodipy-positive cells,[4],9.63 ± 4.1%
O=c1[nH]c2ccccc2n1CCCN1CCC(n2c(=O)[nH]c3cc(Cl)ccc32)CC1 [Domperidone],percent Bodipy-positive cells,,53.1 ± 8.6%
same,percent Bodipy-positive cells,[3],16.2 ± 1.8%
same,percent Bodipy-positive cells,library stock concentration: 4.7 mM,23.4% and 25.2%
COP(=S)(OC)Oc1ccc(SC)c(C)c1,percent Bodipy-positive cells,[1],31.14 ± 0.21%
O=C([O-])c1ccccc1-c1c2cc(Br)c(=O)cc-2oc2[c]([Hg+])c([O-])c(Br)cc12.[Na+].[Na+].[OH-] [Merbromin],percent Bodipy-positive cells,,5.93 ± 5.8%
same,percent Bodipy-positive cells,[1],25.8 ± 18%
CN1C[C@H](C(=O)N[C@]2(C)O[C@@]3(O)[C@@H]4CCCN4C(=O)[C@H](Cc4ccccc4)N3C2=O)C[C@@H]2c3cccc4[nH]cc(c34)C[C@H]21.CS(=O)(=O)O [Dihydroergotamine methanesulfonate],percent Bodipy-positive cells,[1],94.618 ± 0.044%
C/C=C1/C[N+]2(C)CCC34C(=C(C=O)[C@H]1C[C@@H]32)Nc1ccccc14 (stereo partly drawn) [Fluorocurarine chloride],percent Bodipy-positive cells,,8.49 ± 2.1%
CC(C)[N+](C)(CCC(C(N)=O)(c1ccccc1)c1ccccc1)C(C)C [Isopropamide iodide],percent Bodipy-positive cells,,9.06 ± 1.4%
same,percent Bodipy-positive cells,[1],16.9 ± 1.4%
C=C1[C@H]2C[C@@]3([C@@H]1O)[C@@H](C[C@@H]2O)[C@]12[C@@H]4C[C@H]3[C@H]1N(CC)C[C@]4(C)CC[C@@H]2O [Napelline],percent Bodipy-positive cells,,8.21 ± 3.2%
CCCCC/C=C\C/C=C\C/C=C\C/C=C\CCCC(=O)NCc1ccc(O)c(OC)c1 [Arvanil],percent Bodipy-positive cells,[4],12.1 ± 6.9%
C#C[C@]1(O)CC[C@H]2[C@@H]3CCC4=CC(=O)CC[C@]4(C)[C@H]3CC[C@@]21C [Ethisterone],percent Bodipy-positive cells,,30.9 ± 11%
same,percent Bodipy-positive cells,[1],81.7 ± 0.95%
S=C(NC1CCCCC1)N1CCC(c2cnc[nH]2)CC1 [Thioperamide maleate],percent Bodipy-positive cells,,11.7 ± 1.2%
same,percent Bodipy-positive cells,[1],24.2 ± 5.1%
S=C(NC1CCCCC1)N1CCC(c2cnc[nH]2)CC1 [Thioperamide],percent Bodipy-positive cells,[1],10.7 ± 2.4%
C#CCN(C)C(C)Cc1ccccc1 (stereo not drawn) [Deprenyl],percent Bodipy-positive cells,library stock concentration: 26.7 mM,21.2 ± 2.8%
CN1C[C@H](CNC(=O)OCc2ccccc2)C[C@@H]2c3cccc4c3c(cn4C)C[C@H]21 [Metergoline],percent Bodipy-positive cells,[1],68.1 ± 15%
O=C([O-])Cc1ccccc1.[Na+] [Sodium phenylacetate],percent Bodipy-positive cells,library stock concentration: 12.6 mM,7.4% and 2.37%
N=C(NCc1ccc(Cl)cc1)SCCCc1c[nH]cn1 [Clobenpropit],percent Bodipy-positive cells,[1],62.9 ± 10%
CN1[C@@H]2CC(O)C[C@H]1[C@@H]1O[C@@H]12 (stereo partly drawn) [Scopine HCl],percent Bodipy-positive cells,[3],6.06 ± 1.3%
same,percent Bodipy-positive cells,[1],10.1 ± 1.4%
COc1ccc2c(c1)[nH]c1c(C)nccc12 [Harmine],percent Bodipy-positive cells,library stock concentration: 9.4 mM,64 ± 6.7%
N[C@@H](Cn1oc(=O)[nH]c1=O)C(=O)O [L-Quisqualic acid],percent Bodipy-positive cells,[1],7.85 ± 3.8%
NC(N)=NOCC[C@H](N)C(=O)O [Canavanine],percent Bodipy-positive cells,[1],20.8 ± 0.78%
"NC(N)=NOCC[C@H](N)C(=O)O [Canavanine sulfate monohydrate (L,+)]",percent Bodipy-positive cells,,27.9 ± 6.8%
NC(N)=NOCC[C@H](N)C(=O)O [L-Canavanine sulfate],percent Bodipy-positive cells,[1],30.4 ± 0.59%
NC(N)=NOCC[C@H](N)C(=O)O [L-Canavanine],percent Bodipy-positive cells,[1],22.9 ± 8%
